# Screen size: about 340,000 compounds; about 6,200 (1.8%) were called active. This list was built around the results that the source calls inconclusive (neither active nor inactive); the mix of calls is not that of the screen. Calls come from the whole dose curve; as a rule, active = well fitted activation curve with a large enough effect; inconclusive = small, poorly fitted or top-dose-only effect; inactive = no such curve, though single readings can be large or run the other way. Potencies beside an inconclusive call are fits to weak or partial responses and may not hold up.
# Assay: A quantitative high throughput screen for small molecules that induce DNA re-replication in SW480 colon adenocarcinoma cells. For re-replication activation: % of control where 0% means no effect. Note: nearly all actives have a fitted effect of over 55% in size.
# Conditions: Hoechst DNA content imaging, 48 h; re-replication activation: at 46.1 µM (top of the series) unless noted
# Summary of the method: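 DNA re-replication was detected as more nuclei of elevated Hoechst intensity after 48 hr exposure to compound (23 nL pinned per well of 250 cells).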
# Potency is the fitted concentration of half-maximal effect.
SMILES,Potency,re-replication activation
O=C(/C=C/c1ccc(F)cc1)N1CCN(c2ncccn2)CC1,inactive,
COC(=O)C(CC(C)C)N(Cc1cc(OC)cc(OC)c1)S(=O)(=O)c1ccccc1Br (stereo not drawn),active: 20.6 µM,
CCCCCCC[N+](CC)(CC)CCCCc1ccc(Cl)cc1,inactive,
Cc1ccc(NC(=O)CN(C)C(=O)c2ccc(S(=O)(=O)N(C)c3ccccc3)cc2)cc1,"inconclusive: 0.082 µM [activator, partial curve, poor fit]",
CS(=O)(=O)N1CCN(Cc2cc(=O)n3ccsc3n2)CC1,"inconclusive: 0.651 µM [activator, partial curve, poor fit]",
Cc1cc(=O)oc2cc(OCCSc3nnc(-c4ccccc4)o3)ccc12,inactive,
COc1ccc2[nH]c3c(N4CCC(O)(c5cccc(C(F)(F)F)c5)CC4)ncnc3c2c1,"inconclusive: 20.6 µM [activator, single point]",
COc1ccc(-c2csc(Nc3ccccn3)n2)cc1OC,"inconclusive: 29.1 µM [activator, partial curve, poor fit]",
CCc1ccc(NC(=O)CCCNC(=O)Cn2cnc3sc(C)c(C)c3c2=O)cc1,"inconclusive: 29.1 µM [activator, partial curve, poor fit]",
CN(C(=O)COC(=O)c1nc(Cl)c(Cl)c(Cl)c1Cl)C1CCS(=O)(=O)C1 (stereo not drawn),"inconclusive: 3.26 µM [activator, partial curve, poor fit]",
C/C(=N\Nc1ccc(Cl)cc1)c1ccccn1,inactive,
C=CCn1c(SCC(=O)NC(=O)NCc2ccco2)nc2sc(CC)cc2c1=O,"inconclusive: 29.1 µM [activator, single point]",
O=C1OC(c2cccc([N+](=O)[O-])c2)C2(CCCC2)C(=O)C12CCCCC2 (stereo not drawn),"inconclusive: 29.1 µM [activator, single point]",
COc1ccc(OC)c(NC(=O)NNC(=O)c2cc3occc3[nH]2)c1,inactive,
Cc1ccc(NC(=O)Cn2c(O)c(N=NC(=O)c3ccncc3)c3ccccc32)cc1,inactive,
CCOC(=O)c1ccc(Oc2nc(NC(C)(C)C)nc(N(C)C)n2)cc1,"inconclusive: 29.1 µM [activator, single point]",
CCOc1cccc2cc(C(=O)NC(C)c3ccccc3)c(=N)oc12 (stereo not drawn),"inconclusive: 29.1 µM [activator, single point]",
O=C(COC(=O)CSc1ccc([N+](=O)[O-])cc1)NCCCc1ccccc1,"inconclusive: 0.326 µM [activator, full curve]",
CCN(CC)CCCNC(=O)c1ccc2c(=O)n(Cc3ccc4c(c3)OCO4)c(=S)[nH]c2c1,"inconclusive: 20.6 µM [activator, single point]",
Cc1ccccc1/C=N/NC(=O)c1sccc1C,inactive,
Cc1ccc(S(=O)(=O)Nc2cccc(C(=O)N3CCCC3)c2)cc1F,inactive,
O=C(Nc1ccccc1)c1ccc(-c2ccc(Br)cc2)o1,"inconclusive: 29.1 µM [activator, single point]",

# Not a retest: 3 of the compounds above.
SMILES,Potency,re-replication activation
Cc1ccccc1/C=N/NC(=O)c1sccc1C,inactive,
Cc1ccc(S(=O)(=O)Nc2cccc(C(=O)N3CCCC3)c2)cc1F,inactive,
O=C(Nc1ccccc1)c1ccc(-c2ccc(Br)cc2)o1,"inconclusive: 29.1 µM [activator, single point]",

# Continued:

SMILES,Potency,re-replication activation
Cc1cc(C)c(S(=O)(=O)Nc2cc(SCC(=O)O)c(O)c3ccccc23)cc1C,"inconclusive: 29.1 µM [activator, single point]",
CC(C(=O)NC1CCCC1)N(Cc1ccco1)C(=O)c1snc(C(=O)NC2CCCC2)c1N (stereo not drawn),inactive,
COc1cc2c(cc1OC)C1=CC(=O)C(=O)N1C(C)(C)C2,"inconclusive: 6.51 µM [activator, single point]",
O=C(Nc1nc(-c2ccc(Cl)s2)cs1)c1ccccc1,,inactive: -2.08% [at 9.22 µM]
COc1ccc2oc(C(=O)OC/C(O)=C(\C#N)c3nc4ccccc4[nH]3)c(C)c2c1,"inconclusive: 18.4 µM [activator, single point]",
CN(/N=C/c1cccnc1)c1cnn(-c2ccc(F)c(Cl)c2)c(=O)c1Cl,inactive,
Oc1ccc(/C=C/c2ccc3cccc(O)c3n2)cc1Br,"inconclusive: 29.1 µM [activator, single point]",
CC(C(=O)Nc1nc(-c2ccc(F)cc2)cs1)N1C(=O)C2CC=CCC2C1=O (stereo not drawn),inactive,
CCOc1ccc(C(C)=O)cc1N1C(=O)C2C3C=CC(O3)C2C1=O (stereo not drawn),"inconclusive: 29.1 µM [activator, single point]",
CC(C)C(=O)Nc1cccc(-c2nc3ncccc3o2)c1,"inconclusive: 4.61 µM [activator, full curve, poor fit]",
COc1cc(C(=O)NC(=S)Nc2ccc(N3CCCC3)cc2)cc(OC)c1OC,inactive,
Cc1ccc(S(=O)(=O)NCC(=O)N/N=C/c2ccccc2O)cc1,"inconclusive: 2.91 µM [activator, full curve, poor fit]",
O=C(Nc1cccc(NC(=O)c2cccs2)c1)c1ccc(Br)cc1,"inconclusive: 0.58 µM [activator, single point]",
CCOc1cc2[nH]c(=O)n(Cc3ccc(C(=O)NCCCN4CCCC4=O)cc3)c(=O)c2cc1OCC,"inconclusive: 25.9 µM [activator, partial curve, poor fit]",
C/C(=N\NC(=O)c1ccccc1)c1c(C)[nH]n(-c2ccccc2)c1=O,"inconclusive: 9.2 µM [activator, partial curve, poor fit]",
COc1cc(C2Sc3ccccc3NC3=C2C(=O)OC3)cc(OC)c1OC (stereo not drawn),"inconclusive: 20.6 µM [activator, single point]",
Cc1cc(C(=O)CN2C(=O)NC(C)(c3cc(F)ccc3F)C2=O)c(C)n1C1CC1 (stereo not drawn),"inconclusive: 18.4 µM [activator, partial curve, poor fit]",
CCN1C/C(=N\S(=O)(=O)/N=C2\CN(CC)C(=O)N2CC)N(CC)C1=O,inactive,
COc1ccc(C(C)=O)cc1COC(=O)c1c(C)noc1C,"inconclusive: 18.4 µM [activator, single point]",
COc1ccc(CNC(=O)C/C(C)=N/NC(=O)COc2ccc(C)cc2Br)cc1,"inconclusive: 20.6 µM [activator, single point]",
Cn1cccc1/C=C1\CC(C(C)(C)C)C/C(=C\c2cccn2C)C1=O (stereo not drawn),"inconclusive: 3.66 µM [activator, full curve]",

# Reference: PubChem BioAssay AID624297 (National Center for Advancing Translational Sciences (NCATS), 2012)
